Laboratory results taken from PMC5996148.
This is one part of the list. For some assays here: Construct or isoform of the protein are uncertain.

What was measured:
Assay in all cases: protein microarray (ProtoArray v5.0), streptavidin-Alexa Fluor 647
Settings in all cases: 3'-biotin; 20 mM Tris (pH 7.5), 5 mM MgCl2, 100 mM KCl, 0.1% Tween-20, A/T-rich and random oligonucleotide blockers; temperature not stated; high values mean tight binding
[1] = test system: ATE1 (human)
[2] = test system: ATF2 (human)
[3] = test system: ATF3 (human)
[4] = test system: ATG10 (human)
[5] = test system: ATG12 (human)
[6] = test system: ATG4A (human)
[7] = test system: ATG4D (human)
[8] = test system: ATG7 (human)
[9] = test system: ATP synthase-coupling factor 6, mitochondrial (human)
[10] = test system: ATP-binding cassette sub-family G member 1 (human)
[11] = test system: ATP-dependent RNA helicase A (human)
[12] = test system: ATP1B3 (human)
[13] = molecular target: T1, ATP5C1 (UniProt P36542)
T1 sequence: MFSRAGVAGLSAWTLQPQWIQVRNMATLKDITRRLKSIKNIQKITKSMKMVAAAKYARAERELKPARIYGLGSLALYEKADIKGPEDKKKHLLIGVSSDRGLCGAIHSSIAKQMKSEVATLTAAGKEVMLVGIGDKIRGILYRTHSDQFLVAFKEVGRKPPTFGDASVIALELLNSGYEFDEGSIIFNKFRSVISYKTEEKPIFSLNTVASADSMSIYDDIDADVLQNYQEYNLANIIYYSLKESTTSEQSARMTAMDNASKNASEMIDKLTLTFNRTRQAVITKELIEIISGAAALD

[14] = test system: ATP5E (human)
[15] = test system: ATP5H (human)
[16] = test system: ATP5L (human)
[17] = test system: ATP6AP2 (human)
[18] = test system: ATP6V1B1 (human)
[19] = test system: ATP6V1E1 (human)
[20] = test system: ATP6V1E2 (human)

GGGAGGCTGAGGCAGG [G4-1 biotinylated (PQS2)]
binding signal [1]: -0.295 z-score
binding signal [2]: -0.347 z-score
binding signal [3]: -0.304 z-score
binding signal [4]: -0.343 z-score
binding signal [5]: -0.289 z-score
binding signal [6]: -0.367 z-score
binding signal [7]: -0.335 z-score
binding signal [8]: -0.309 z-score
binding signal [9]: -0.312 z-score
binding signal [10]: -0.264 z-score
binding signal [11]: -0.293 z-score
binding signal [12]: -0.33 z-score
binding signal [13]: -0.335 z-score
binding signal [14]: -0.307 z-score
binding signal [15]: -0.307 z-score
binding signal [16]: -0.256 z-score
binding signal [17]: -0.291 z-score
binding signal [18]: -0.345 z-score
binding signal [19]: -0.26 z-score
binding signal [20]: -0.304 z-score
